Counter-ions that a name gives are not always drawn.
Columns and labels:
[1] = test system: HeLa; test: Cytotoxicity against human HeLa cells after 72 hrs by MTT assay; type: functional, cell-based
[2] = test system: A549; test: Cytotoxicity against human A549 cells after 72 hrs by MTT assay; type: functional, cell-based; settings: A549, 72 h

SMILES: COc1cccc2c1C(=O)c1c(O)c3c(c(O)c1C2=O)C[C@@](O)(C(=O)CO)C[C@@H]3O[C@H]1C[C@H](N)[C@H](O)[C@H](C)O1 [DOXORUBICIN HYDROCHLORIDE]
- IC50 [1]: 310 nM
- IC50 [2]: 120 nM
